Protein sequences, listed by entry. Tags and fused reporters are not part of them. Chains listed by the source or under a name are the forms on record and can include a tag or linker.
UniProt Q01196, other isoform, or with tags, fused parts or gaps limits assumed: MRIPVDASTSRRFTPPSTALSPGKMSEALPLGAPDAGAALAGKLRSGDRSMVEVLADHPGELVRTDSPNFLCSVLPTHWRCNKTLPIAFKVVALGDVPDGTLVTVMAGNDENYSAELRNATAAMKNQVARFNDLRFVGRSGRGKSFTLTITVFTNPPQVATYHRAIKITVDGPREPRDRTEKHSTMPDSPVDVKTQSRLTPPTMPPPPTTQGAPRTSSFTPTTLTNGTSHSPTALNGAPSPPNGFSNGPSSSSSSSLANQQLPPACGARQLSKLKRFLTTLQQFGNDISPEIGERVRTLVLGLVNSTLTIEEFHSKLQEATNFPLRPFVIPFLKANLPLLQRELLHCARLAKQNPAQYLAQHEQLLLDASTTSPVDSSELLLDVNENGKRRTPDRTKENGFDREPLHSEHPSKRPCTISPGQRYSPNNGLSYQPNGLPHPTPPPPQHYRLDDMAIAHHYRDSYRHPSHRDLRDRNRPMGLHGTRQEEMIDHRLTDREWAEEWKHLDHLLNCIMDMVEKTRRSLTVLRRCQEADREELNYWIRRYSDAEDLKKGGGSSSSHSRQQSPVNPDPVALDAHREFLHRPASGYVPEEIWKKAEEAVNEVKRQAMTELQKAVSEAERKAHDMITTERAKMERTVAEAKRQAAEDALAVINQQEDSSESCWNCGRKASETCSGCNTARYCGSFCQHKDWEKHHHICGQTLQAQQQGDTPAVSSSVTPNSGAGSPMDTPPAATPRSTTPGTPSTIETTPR

In patent US20060166876A1 (ONCOSCIENCE, published 2006):

Molecular target: AML1-ETO fusion protein (UniProt Q01196 1-177; Q06455 30-604, limits assumed)
Assay: cell-based or functional assay

- inhibition of promoter activity (myb-TK luciferase reporter, KCL22 cells co-transfected with GFP-M&M and AML1-ETO): > 5 fold
B1: GFP-M&M (designed binder, not shown: large carriers)
chain: VIANYLPNRTDVQCQHRWQKVLNPELIKGPWTKEEDQRVIELVQKYGPKRWSVIAKHLKGRIGKQCRERWHNHLNPEVKKTSWTEEEDRIIYQAHKRLGNRWAEIAKLLPGRTDNAIKNHWNSTMRRKVEQEGYATSHTMSTAEVLLNMESPSDILDEKQIFSTSEMLPDSDPAPAVTLPNYLFPASEPDALNRAGDTSDQEGHSLEEKASREESAKKTGKSKKRIRKTKGNRSTSPVTDPSIPIRKKSKDGKG
